Values of other authors, collected in US11648199B2 (AI Therapeutics, Inc, priority 2014, dated 2023).

Details: benzyl alcohol, chloroform, acetone, and acetonitrile; cited from earlier work

CO[C@H]1C[C@@H]2CC[C@@H](C)[C@@](O)(O2)C(=O)C(=O)N2CCCC[C@H]2C(=O)O[C@H]([C@H](C)C[C@@H]2CC[C@@H](O)[C@H](OC)C2)CC(=O)[C@H](C)/C=C(\C)[C@@H](O)[C@@H](OC)C(=O)[C@H](C)C[C@H](C)/C=C/C=C/C=C/1C [Rapamycin, (3 S,6R,7E,9R,10R,12R,14S,15E,17E,19E,21S,23 S,26R,27R,34aS)-9,10,12,13,-14,21,22,23,24,25,26,27,32,33,34,34a-hexadecahydro-9,27-dihydroxy-3-[(1R)-2-[(1S,3R,4R)-4-hydroxy-3-methoxycyclohexyl]-1-methylethyl]-10,21-dimethox-y-6,8,12,14,20,26-hexamethyl-23,27-epoxy-3H-pyrido[2,1-c][1,4]oxaazacyclohentriacontine-1,5,11,28,29(4H,6H,31H)-pentone]
solubility in organic solvents: freely soluble
